Results are given in words; binding and its absence hold for the method and conditions named. Some entries that bind do so weakly or less than the wild type.
Biological target: importin 9 (IPO9), human, GST tag cleaved (human) (UniProt Q96P70)
Test: SPR; IPO9 coupled to CM5 chip (80 nM, 6000 RU); cofilin WT or S119A S120A (0–55 μM) or profilin (0–60 μM) series, 300 s injection at 20 μl/min; single replicates; both purified

Amino acid sequences for entries named in this document (tags omitted). A change or cut given only in a name is not applied to a line headed by its entry. Chains listed by the source or under a name are the forms on record and can include a tag or linker.
S119A S120A cofilin (human cofilin-1 double point mutant) (P23528, form named): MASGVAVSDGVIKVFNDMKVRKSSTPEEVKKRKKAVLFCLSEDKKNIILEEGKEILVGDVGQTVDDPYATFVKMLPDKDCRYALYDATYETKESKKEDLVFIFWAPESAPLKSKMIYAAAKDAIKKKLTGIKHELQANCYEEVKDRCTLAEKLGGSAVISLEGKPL

| Substance | binding |
| --- | --- |
| S119A S120A cofilin (human cofilin-1 double point mutant) (from UniProt P23528 1-166) | binds weakly |
| human cofilin-1, wild type (from UniProt P23528 1-166) | binds weakly |

From paper PMC12860355
